Two molecules from publication PMC9104323 can be followed below.

The chains behind the UniProt entries cited, without tags or fusion partners.
UniProt P04150: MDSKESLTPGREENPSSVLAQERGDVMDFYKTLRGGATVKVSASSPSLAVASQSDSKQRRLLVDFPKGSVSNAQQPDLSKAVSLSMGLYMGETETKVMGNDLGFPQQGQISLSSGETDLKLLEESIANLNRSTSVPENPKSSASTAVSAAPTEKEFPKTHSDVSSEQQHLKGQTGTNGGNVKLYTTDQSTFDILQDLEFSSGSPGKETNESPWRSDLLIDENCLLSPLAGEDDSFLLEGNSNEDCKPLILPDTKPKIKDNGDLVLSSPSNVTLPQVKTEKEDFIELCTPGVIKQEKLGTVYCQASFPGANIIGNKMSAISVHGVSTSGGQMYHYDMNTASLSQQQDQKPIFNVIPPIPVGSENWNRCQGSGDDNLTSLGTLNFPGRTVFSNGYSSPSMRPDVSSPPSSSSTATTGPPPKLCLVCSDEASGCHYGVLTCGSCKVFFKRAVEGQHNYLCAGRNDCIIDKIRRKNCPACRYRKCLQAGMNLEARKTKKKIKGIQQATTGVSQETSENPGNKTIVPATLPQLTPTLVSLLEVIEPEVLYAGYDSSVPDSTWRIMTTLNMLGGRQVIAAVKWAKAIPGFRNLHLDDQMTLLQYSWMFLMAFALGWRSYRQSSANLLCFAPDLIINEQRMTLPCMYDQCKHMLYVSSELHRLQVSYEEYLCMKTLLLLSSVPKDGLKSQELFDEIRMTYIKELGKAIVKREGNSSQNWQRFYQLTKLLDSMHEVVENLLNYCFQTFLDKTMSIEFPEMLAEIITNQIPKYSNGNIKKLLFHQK
UniProt Q13263: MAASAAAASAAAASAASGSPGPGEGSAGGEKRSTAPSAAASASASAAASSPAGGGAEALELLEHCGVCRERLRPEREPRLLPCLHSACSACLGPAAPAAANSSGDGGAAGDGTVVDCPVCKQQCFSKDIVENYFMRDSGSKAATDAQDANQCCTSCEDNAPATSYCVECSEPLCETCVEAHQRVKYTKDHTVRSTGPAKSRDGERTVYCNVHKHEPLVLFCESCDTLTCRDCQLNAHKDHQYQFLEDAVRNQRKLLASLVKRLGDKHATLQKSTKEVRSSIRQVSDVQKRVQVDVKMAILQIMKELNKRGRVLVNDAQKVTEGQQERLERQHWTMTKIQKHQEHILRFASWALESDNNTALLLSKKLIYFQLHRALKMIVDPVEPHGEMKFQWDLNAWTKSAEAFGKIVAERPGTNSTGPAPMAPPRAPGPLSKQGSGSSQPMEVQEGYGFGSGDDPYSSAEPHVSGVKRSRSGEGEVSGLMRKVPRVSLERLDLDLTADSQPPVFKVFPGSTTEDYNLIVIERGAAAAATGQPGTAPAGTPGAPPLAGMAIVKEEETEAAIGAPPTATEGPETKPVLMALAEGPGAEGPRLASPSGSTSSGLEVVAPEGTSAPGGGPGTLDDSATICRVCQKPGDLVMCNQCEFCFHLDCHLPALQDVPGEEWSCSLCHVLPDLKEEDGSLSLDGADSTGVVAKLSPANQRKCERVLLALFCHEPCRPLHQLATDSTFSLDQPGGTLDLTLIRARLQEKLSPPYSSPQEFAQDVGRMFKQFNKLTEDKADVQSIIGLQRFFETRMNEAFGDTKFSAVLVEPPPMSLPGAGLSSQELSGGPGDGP

This assay has as its target glucocorticoid receptor (human (endogenous in HEK293)) (UniProt P04150). The assay can be described thus: co-IP; IP from HEK293 whole cell lysates with anti-GR (G-5), anti-AMPD2 (QQ13) and anti-TRIM28 (PA5-27648) antibodies; western blot for GR, AMPD2 and TRIM28.

Results are given in words; binding and its absence hold for the method and conditions named. Binding seen in cells or lysates may run through a third protein.

On to “transcription intermediary factor 1-beta (from UniProt Q13263 1-835)”, for which the binding entry is given as “no binding”.

B1: AMP deaminase 2 (protein, UniProt Q01433 1-825)
chain: MASYPSGSGKPKAKYPFKKRASLQASTAAPEARGGLGAPPLQSARSLPGPAPCLKHFPLDLRTSMDGKCKEIAEELFTRSLAESELRSAPYEFPEESPIEQLEERRQRLERQISQDVKLEPDILLRAKQDFLKTDSDSDLQLYKEQGEGQGDRSLRERDVLEREFQRVTISGEEKCGVPFTDLLDAAKSVVRALFIREKYMALSLQSFCPTTRRYLQQLAEKPLETRTYEQGPDTPVSADAPVHPPALEQHPYEHCEPSTMPGDLGLGLRMVRGVVHVYTRREPDEHCSEVELPYPDLQEFVADVNVLMALIINGPIKSFCYRRLQYLSSKFQMHVLLNEMKELAAQKKVPHRDFYNIRKVDTHIHASSCMNQKHLLRFIKRAMKRHLEEIVHVEQGREQTLREVFESMNLTAYDLSVDTLDVHADRNTFHRFDKFNAKYNPIGESVLREIFIKTDNRVSGKYFAHIIKEVMSDLEESKYQNAELRLSIYGRSRDEWDKLARWAVMHRVHSPNVRWLVQVPRLFDVYRTKGQLANFQEMLENIFLPLFEATVHPASHPELHLFLEHVDGFDSVDDESKPENHVFNLESPLPEAWVEEDNPPYAYYLYYTFANMAMLNHLRRQRGFHTFVLRPHCGEAGPIHHLVSAFMLAENISHGLLLRKAPVLQYLYYLAQIGIAMSPLSNNSLFLSYHRNPLPEYLSRGLMVSLSTDDPLQFHFTKEPLMEEYSIATQVWKLSSCDMCELARNSVLMSGFSHKVKSHWLGPNYTKEGPEGNDIRRTNVPDIRVGYRYETLCQELALITQAVQSEMLETIPEEAGITMSPGPQ
For B1, the binding result is reported as “no binding”.
